# From the supplement of paper PMC12819154, “High-throughput peptide-centric local stability assay extends protein–ligand identification to membrane proteins, tissues and bacteria” (Nature Structural & Molecular Biology, 2025)
# By UniProt entry, the sequences of proteins in these tests, tags left out. Where a name states a change or a piece, a line headed by the entry shows the natural chain unless it says otherwise.
# UniProt Q9NX40: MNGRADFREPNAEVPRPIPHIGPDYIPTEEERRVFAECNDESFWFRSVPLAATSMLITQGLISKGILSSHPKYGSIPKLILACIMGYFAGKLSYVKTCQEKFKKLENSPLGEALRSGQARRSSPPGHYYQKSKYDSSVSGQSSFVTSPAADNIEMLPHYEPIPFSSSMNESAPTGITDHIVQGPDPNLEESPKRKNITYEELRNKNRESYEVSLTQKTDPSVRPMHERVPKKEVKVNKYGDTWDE
# UniProt Q9P1Z2: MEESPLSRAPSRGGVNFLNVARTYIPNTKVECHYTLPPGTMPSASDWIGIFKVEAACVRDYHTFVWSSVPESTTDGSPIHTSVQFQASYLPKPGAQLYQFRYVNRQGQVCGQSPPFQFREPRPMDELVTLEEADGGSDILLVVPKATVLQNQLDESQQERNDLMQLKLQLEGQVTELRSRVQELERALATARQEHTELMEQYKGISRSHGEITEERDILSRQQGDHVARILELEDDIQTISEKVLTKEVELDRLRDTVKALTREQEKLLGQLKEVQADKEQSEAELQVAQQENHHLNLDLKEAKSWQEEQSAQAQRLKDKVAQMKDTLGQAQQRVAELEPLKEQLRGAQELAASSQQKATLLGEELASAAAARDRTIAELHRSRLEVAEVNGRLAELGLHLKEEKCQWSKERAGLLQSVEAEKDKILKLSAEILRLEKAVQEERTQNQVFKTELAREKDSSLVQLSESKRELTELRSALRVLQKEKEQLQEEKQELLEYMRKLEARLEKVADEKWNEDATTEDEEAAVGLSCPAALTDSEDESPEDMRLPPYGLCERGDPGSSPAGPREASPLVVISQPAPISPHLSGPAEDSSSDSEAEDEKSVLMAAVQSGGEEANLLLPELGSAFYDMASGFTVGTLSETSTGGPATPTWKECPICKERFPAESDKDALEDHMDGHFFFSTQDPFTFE
# UniProt Q9UGY1: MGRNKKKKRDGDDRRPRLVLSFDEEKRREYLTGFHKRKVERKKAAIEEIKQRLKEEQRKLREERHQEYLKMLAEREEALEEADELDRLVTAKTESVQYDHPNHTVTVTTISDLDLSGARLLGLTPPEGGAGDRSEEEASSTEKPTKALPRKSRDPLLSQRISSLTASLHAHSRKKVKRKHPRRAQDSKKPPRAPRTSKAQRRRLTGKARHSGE
# UniProt Q9NX70: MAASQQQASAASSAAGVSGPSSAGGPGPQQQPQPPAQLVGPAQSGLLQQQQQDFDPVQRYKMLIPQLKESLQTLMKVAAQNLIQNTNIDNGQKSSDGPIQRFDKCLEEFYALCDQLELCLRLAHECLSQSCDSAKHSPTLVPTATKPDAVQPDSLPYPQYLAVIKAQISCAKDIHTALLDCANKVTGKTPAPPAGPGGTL
# UniProt Q9P2D3: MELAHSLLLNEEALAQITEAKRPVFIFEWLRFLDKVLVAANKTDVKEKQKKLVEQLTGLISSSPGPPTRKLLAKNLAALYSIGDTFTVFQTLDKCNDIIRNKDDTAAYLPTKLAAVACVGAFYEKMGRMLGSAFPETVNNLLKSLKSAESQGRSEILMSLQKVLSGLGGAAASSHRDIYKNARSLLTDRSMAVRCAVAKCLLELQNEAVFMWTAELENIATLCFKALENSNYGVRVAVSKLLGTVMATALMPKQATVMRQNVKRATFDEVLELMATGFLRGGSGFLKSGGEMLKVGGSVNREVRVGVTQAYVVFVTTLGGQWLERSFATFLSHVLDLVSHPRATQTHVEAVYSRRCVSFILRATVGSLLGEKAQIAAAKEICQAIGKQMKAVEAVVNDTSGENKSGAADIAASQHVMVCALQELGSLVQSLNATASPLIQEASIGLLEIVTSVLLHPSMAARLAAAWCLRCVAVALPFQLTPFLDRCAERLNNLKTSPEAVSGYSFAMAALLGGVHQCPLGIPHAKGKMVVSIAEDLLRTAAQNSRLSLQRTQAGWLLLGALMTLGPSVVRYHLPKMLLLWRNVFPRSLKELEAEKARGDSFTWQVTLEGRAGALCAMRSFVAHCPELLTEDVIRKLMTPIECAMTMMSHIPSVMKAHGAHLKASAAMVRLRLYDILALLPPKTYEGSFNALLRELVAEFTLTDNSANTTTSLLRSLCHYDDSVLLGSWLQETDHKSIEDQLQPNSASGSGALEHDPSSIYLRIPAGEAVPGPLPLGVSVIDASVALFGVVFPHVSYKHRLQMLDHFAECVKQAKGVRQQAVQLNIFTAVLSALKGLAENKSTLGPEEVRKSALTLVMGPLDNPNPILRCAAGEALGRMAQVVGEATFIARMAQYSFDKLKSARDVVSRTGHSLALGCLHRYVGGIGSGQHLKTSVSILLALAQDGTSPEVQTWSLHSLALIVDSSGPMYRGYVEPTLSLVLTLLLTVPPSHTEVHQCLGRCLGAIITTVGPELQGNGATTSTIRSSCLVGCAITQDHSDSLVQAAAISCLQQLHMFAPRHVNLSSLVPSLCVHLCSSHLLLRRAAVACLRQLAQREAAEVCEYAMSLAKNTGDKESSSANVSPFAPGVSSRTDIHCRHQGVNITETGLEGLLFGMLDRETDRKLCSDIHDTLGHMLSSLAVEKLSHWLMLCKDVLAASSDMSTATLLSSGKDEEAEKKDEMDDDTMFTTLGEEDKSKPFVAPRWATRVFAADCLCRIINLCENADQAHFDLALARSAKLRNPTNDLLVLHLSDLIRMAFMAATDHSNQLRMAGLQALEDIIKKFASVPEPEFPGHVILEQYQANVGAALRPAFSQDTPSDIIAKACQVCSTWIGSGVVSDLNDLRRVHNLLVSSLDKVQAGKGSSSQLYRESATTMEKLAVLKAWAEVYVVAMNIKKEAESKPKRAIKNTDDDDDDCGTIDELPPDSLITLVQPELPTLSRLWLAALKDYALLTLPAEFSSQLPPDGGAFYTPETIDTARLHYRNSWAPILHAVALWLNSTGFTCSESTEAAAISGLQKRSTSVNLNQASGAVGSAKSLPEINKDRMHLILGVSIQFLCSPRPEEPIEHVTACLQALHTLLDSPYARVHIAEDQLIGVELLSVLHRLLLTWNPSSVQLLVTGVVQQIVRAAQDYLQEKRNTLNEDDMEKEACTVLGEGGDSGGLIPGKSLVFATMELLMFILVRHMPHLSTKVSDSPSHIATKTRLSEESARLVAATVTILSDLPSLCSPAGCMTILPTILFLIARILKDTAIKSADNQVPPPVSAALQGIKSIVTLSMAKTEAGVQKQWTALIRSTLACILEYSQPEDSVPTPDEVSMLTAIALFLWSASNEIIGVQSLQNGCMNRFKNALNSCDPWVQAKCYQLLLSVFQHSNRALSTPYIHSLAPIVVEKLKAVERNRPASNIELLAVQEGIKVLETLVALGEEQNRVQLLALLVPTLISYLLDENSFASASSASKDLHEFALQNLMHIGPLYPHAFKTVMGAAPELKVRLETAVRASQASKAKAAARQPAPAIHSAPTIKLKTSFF
# UniProt Q9UFC0: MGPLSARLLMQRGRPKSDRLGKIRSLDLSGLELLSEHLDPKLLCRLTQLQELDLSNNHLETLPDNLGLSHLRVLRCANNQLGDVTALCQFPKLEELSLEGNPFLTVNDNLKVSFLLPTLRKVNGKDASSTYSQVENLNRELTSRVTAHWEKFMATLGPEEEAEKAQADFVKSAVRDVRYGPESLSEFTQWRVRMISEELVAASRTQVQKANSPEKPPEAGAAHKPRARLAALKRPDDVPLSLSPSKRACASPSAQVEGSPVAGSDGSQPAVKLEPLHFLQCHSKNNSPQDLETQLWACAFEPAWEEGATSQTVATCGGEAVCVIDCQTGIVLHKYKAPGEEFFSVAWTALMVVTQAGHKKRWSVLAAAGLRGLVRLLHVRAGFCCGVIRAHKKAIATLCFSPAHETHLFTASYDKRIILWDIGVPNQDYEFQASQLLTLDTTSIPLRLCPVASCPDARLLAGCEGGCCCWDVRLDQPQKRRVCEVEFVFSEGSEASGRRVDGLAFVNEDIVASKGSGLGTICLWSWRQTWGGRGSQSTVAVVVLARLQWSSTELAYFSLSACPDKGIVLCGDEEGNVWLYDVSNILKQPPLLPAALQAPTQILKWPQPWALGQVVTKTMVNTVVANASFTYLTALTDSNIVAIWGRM
# UniProt Q9UBW8: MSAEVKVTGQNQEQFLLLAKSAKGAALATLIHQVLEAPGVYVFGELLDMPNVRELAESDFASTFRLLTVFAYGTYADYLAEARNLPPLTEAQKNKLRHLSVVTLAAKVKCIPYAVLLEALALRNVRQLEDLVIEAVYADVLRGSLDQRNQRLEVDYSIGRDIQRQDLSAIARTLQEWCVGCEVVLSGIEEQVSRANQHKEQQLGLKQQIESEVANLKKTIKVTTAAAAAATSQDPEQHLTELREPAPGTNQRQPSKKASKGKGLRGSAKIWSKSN
# UniProt Q9UBP6: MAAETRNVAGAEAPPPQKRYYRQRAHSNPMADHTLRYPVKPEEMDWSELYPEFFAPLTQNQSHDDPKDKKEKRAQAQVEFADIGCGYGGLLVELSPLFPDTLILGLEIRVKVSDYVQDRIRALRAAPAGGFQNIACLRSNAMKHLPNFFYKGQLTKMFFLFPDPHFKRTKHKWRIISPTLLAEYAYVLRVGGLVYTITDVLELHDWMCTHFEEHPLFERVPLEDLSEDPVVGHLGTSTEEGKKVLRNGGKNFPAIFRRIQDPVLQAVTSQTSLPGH
# UniProt Q9NYR9: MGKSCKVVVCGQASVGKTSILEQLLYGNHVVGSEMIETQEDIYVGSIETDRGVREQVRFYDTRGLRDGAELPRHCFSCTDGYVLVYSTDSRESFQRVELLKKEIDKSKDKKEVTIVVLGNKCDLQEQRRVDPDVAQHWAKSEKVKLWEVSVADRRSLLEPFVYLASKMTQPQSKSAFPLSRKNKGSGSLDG
# UniProt Q9P1Y5: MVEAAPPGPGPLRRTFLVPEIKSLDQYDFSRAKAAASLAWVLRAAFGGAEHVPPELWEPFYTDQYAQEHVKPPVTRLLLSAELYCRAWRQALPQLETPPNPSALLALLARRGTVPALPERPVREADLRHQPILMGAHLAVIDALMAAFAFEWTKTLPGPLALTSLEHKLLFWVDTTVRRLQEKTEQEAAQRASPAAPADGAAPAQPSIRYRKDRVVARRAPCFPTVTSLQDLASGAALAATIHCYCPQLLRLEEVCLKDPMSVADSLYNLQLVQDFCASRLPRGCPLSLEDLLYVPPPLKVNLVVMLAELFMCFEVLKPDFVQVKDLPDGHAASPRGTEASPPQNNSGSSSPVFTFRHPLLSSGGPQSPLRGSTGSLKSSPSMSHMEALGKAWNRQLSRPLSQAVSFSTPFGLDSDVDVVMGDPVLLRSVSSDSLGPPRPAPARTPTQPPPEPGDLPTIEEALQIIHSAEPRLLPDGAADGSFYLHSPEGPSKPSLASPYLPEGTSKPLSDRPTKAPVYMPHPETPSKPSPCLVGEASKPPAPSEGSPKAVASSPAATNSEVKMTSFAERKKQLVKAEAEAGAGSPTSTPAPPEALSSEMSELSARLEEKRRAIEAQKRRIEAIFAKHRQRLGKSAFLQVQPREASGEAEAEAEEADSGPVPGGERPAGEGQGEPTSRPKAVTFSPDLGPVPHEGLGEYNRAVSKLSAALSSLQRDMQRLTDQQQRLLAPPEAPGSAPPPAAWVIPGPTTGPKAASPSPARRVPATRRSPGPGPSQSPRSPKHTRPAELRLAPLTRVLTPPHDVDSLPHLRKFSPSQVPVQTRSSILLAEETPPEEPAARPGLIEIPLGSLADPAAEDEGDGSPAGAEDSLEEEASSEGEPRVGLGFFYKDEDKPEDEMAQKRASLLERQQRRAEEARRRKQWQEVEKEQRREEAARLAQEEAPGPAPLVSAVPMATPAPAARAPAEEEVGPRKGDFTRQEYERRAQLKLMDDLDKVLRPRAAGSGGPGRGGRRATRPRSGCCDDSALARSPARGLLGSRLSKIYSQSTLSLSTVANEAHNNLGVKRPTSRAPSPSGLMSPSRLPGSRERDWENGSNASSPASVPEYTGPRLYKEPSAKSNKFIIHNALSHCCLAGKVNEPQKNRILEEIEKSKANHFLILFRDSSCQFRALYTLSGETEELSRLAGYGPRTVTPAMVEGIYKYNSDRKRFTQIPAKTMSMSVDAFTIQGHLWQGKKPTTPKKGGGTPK
# UniProt Q9NXN4: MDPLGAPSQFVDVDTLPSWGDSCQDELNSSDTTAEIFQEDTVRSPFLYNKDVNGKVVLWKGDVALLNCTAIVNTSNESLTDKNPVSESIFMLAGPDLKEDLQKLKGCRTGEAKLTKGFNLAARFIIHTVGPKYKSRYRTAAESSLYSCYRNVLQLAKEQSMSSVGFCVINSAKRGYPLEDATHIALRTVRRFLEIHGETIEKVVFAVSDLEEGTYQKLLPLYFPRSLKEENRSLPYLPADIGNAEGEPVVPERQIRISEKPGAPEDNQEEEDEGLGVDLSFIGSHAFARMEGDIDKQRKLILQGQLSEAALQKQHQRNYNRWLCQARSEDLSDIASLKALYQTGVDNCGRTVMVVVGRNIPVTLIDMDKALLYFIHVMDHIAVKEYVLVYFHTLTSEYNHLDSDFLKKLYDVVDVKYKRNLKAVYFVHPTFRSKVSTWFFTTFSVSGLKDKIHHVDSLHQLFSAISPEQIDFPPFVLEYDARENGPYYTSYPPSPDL
# The other results are listed elsewhere or left out. Most values lie at the level of the controls, where differences are scatter.
# Compound: Cc1nc(Nc2ncc(C(=O)Nc3c(C)cccc3Cl)s2)cc(N2CCN(CCO)CC2)n1 [dasatinib]
# Test: log2 fold change of tryptic peptide abundance, ligand vs vehicle (limited proteolysis) (log2 ratio); higher = more trypsin-susceptible (destabilized)
# Details: ligand concentration: 5 uM; sample: K562 cleared lysate
row,Target,log2 fold change
1,"OCIAD1 (peptide sequence: NITYEELR, peptide start residue: 196) (UniProt Q9NX40)",0.0586
2,"CGGBP1 (peptide sequence: VTEFGGELHEDGGK, peptide start residue: 27) (UniProt Q9UFW8)",0.377
3,"CALCOCO1 (peptide sequence: EKEQLQEEK, peptide start residue: 485) (UniProt Q9P1Z2)",-0.729
4,"UBA2 (peptide sequence: STGYDPVK, peptide start residue: 246) (UniProt Q9UBT2)",0.118
5,"RTEL1 (peptide sequence: QDYGAVFLCDHR, peptide start residue: 703) (UniProt Q9NZ71)",-0.89
6,"GGA3 (peptide sequence: ELFDQCENKRR, peptide start residue: 250) (UniProt Q9NZ52)",-0.657
7,"NOL12 (peptide sequence: KAAIEEIK, peptide start residue: 43) (UniProt Q9UGY1)",-0.205
8,"MED29 (peptide sequence: ESLQTLMK, peptide start residue: 69) (UniProt Q9NX70)",-0.0473
9,"TMOD2 (peptide sequence: NIDEDELLGKLSEEELK, peptide start residue: 14) (UniProt Q9NZR1)",0.314
10,"HEATR5B (peptide sequence: ESATTMEK, peptide start residue: 1412) (UniProt Q9P2D3)",0.298
11,"UniProt Q9NX38 (peptide sequence: RINATTATS, peptide start residue: 173)",0.436
12,"LRWD1 (peptide sequence: VSFLLPTLR, peptide start residue: 112) (UniProt Q9UFC0)",-0.118
13,"ZNRD1 (peptide sequence: CGHEGMAYHTR, peptide start residue: 90) (UniProt Q9P1U0)",-0.0653
14,"COPS7A (peptide sequence: QDLSAIAR, peptide start residue: 165) (UniProt Q9UBW8)",-0.265
15,"UniProt Q9UGL1 (peptide sequence: DYIVENEKEKPK, peptide start residue: 286)",0.777
16,"METTL1 (peptide sequence: VSDYVQDR, peptide start residue: 112) (UniProt Q9UBP6)",0.464
17,"PSMC3IP (peptide sequence: EIQELKK, peptide start residue: 129) (UniProt Q9P2W1)",0.231
18,"NKIRAS2 (peptide sequence: VKLWEVSVADRR, peptide start residue: 144) (UniProt Q9NYR9)",-0.116
19,"FASTKD2 (peptide sequence: QSLVPVDKSDDELK, peptide start residue: 118) (UniProt Q9NYY8)",-0.373
20,"NCKIPSD (peptide sequence: RKDDAQQR, peptide start residue: 392) (UniProt Q9NZQ3)",-0.571
21,"CAMSAP3 (peptide sequence: GSTGSLK, peptide start residue: 372) (UniProt Q9P1Y5)",-0.105
22,"ZNFX1 (peptide sequence: NGHIYVIGDCGGAMER, peptide start residue: 1851) (UniProt Q9P2E3)",0.133
23,"UniProt Q9NYW8 (peptide sequence: KVHTEEK, peptide start residue: 477)",-0.0717
24,"GDAP2 (peptide sequence: SEDLSDIASLK, peptide start residue: 328) (UniProt Q9NXN4)",0.273
25,"UniProt Q9P0U3 (peptide sequence: EHSVHDSVELHLR, peptide start residue: 379)",-0.363
26,"ABCF2 (peptide sequence: ILHGLGFTPAMQR, peptide start residue: 211) (UniProt Q9UG63)",-0.298
27,"UniProt Q9P2K6 (peptide sequence: LVLDFINAGGAR, peptide start residue: 64)",-0.376
28,"CTTNBP2NL (peptide sequence: NLANTANPR, peptide start residue: 535) (UniProt Q9P2B4)",0.217
29,"UniProt Q9NXR7 (peptide sequence: ELVQQYHQFQCSR, peptide start residue: 119)",-0.134

# Looked up one by one from the entries so far, two records:
row,Target,log2 fold change
1,"OCIAD1 (peptide sequence: NITYEELR, peptide start residue: 196) (UniProt Q9NX40)",0.0586
26,"ABCF2 (peptide sequence: ILHGLGFTPAMQR, peptide start residue: 211) (UniProt Q9UG63)",-0.298
